Test results as given in the supplement of paper PMC10338343.
± gives the standard deviation. Only a part is listed here, and it is no random draw. Many entries were measured with a wide error.

test system: MIWI (PIWIL1) piRISC loaded with piRNA #2 (30 nt); assay: pre-steady-state target cleavage rate (min^-1); MIWI and MILI are mouse PIWI proteins and EfPiwi is from a freshwater sponge; tags in brackets are library labels; higher = faster piRNA-guided slicing of the target; details: guide: piRNA #2 5'p-UUAGGUAACCCAGUAGAUCCAGAGGAAUUC; auxiliary factor: 500 nM mouse GTSF1
Experimental: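 Cleave-'n-Seq: a library of target RNAs (target site embedded in constant flanks, ACAGCATTCCGCGTTAGTGATATCCG... 5' flank; DNA-blocked outside the site) at 0.1 nM was incubated with 1 nM active mouse MILI or MIWI piRISC (synthetic 5'-monophosphorylated piRNA guide) with or without 500 nM mouse GTSF1 at 33 °C for 1 min to 16 h. Uncleaved targets were sequenced and normalised to non-target controls, and the pooled three trials were fitted to a burst-and-steady-state model to give the pre-steady-state cleavage rate (min^-1; k3 is constrained to at most 1e-4). Sequence is the target site only; target names encode pairing extent (gX:gY) and contiguous / 1-mismatch / 2-mismatch / bulge geometry. Fits with R² ≤ 0 are excluded.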

Row | Sequence | pre-steady-state target cleavage rate
1 | CUUAAGGAGACGAUCAACUGGGUUACGUAA | 0.000284 ± 0.023
2 | CUUAAGGUCUGGAUCUAACUGGGUUACCUAA | 0.000126 ± 0.033
3 | CUUAAGGAGAGGAACUACUGCGUUACCUAA | 0.00137 ± 0.0085
4 | CUAUUCCUCUGCAUCUUCUGGGUUACCUAA | 0.316 ± 0.028
5 | GAAUUCCUCUGGAUCUACUGGCUAACCUAA | 0.0225 ± 0.0083
6 | CUUUUCCUCUGGAUCUACUGGGAAUGGAUA [g9:g27:cont:t1A] | 0.000846 ± 0.0099
7 | CUUAAGGAGACCAUCUACUGGGUUCCCUAA | 0.000744 ± 0.0088
8 | CUUAAGGAGACCUUCUACCUGGGUUACCUAA | 0.00186 ± 0.0054
9 | CUUAAGGAGACCAUCUAGUGGGUUACGUAA | 0.0012 ± 0.0075
10 | CUUAAGGAGACCAUCUACUGGCUUUCCUAA | 0.000664 ± 0.011
11 | CUUAAGGAGACGAUCUCACUGGGUUACCUAA | 0.00013 ± 0.042
12 | CUUAACCUCUGGAUCUACUGGGUUCCUAA | 0.00439 ± 0.0049
13 | CUUAAGGAGACGAUCUACUGGGUUGACCUAA | 0.00119 ± 0.0059
14 | CUUAAGGACUGGAUCUACUGGGAUUCCUAA | 0.00097 ± 0.015
15 | CUUAAGGAGACCAUCUACUGGAUUACCUAA | 0.0021 ± 0.004
16 | CUUAAGGAGACCUUCUAGUGGGUUACCAAA | 0.000675 ± 0.017
17 | CUUAAGGAGAGGUACUACUGGGUUACCUAA | 0.00282 ± 0.0049
18 | CUUAAGGAGACCAACUUCUGGGUUACCUAA | 0.00162 ± 0.0052
19 | CUUAAGGAGACCUUCUACAGGGUUACCUAA | 0.00192 ± 0.0054
20 | CUUAAGGAGUGGAUCUACUGAGGUUACCUAA | 0.000166 ± 0.032
21 | CUUAAGGAGAGGAUCUACUGCGUUUCCUAA | 0.00172 ± 0.0062
22 | CUUAAGGAGACCUACUACUGGGUUAGCUUA | 0.000192 ± 0.037
23 | CUUAAGGAGACCAUCUACAGGGUUACGUAA | 0.00231 ± 0.0038
24 | CUAUUCCUCUGGAUCUACUGCGUUACGUAA | 0.539 ± 0.08

A few values from the list:
pre-steady-state target cleavage rate with CUAUUCCUCUGCAUCUUCUGGGUUACCUAA reads 0.316 ± 0.028
pre-steady-state target cleavage rate with CUUAAGGAGACCAUCUACUGGGUUCCCUAA reads 0.000744 ± 0.0088
pre-steady-state target cleavage rate with CUUAAGGAGACGAUCUACUGGGUUGACCUAA reads 0.00119 ± 0.0059

(continued)

Row | Sequence | pre-steady-state target cleavage rate
25 | GAAUUCCUCCGGAUCUACUGGGUUACCUAA | 0.407 ± 0.058
26 | CUUAAGCUCUGGAUCUACUUGGUUACCUAA | 0.000685 ± 0.016
27 | CUUAAGGAGACCUAGAUCCUGGGUUACCUAA | 0.00133 ± 0.0067
28 | CUUAAGGACUGGUUCUACUGGGAUACCUAA | 0.012 ± 0.016
29 | CUUAAGGAGACCAUGUUCUGGGUUACCUAA | 0.00134 ± 0.0061
30 | CUUAAGGAGACCUUCUACUCGGUUUCCUAA | 0.000571 ± 0.016
31 | CUUAAGGAGACCUAGUACUGGGUAACCUAA | 0.000424 ± 0.0095
32 | CUUAAGGAGACCUAGAUCUGGGUUACGUUA | 0.00062 ± 0.013
33 | CUUAAGGAGACGAUCUACUGGGUUACCUAC [g2:g19:cont:t1C] | 0.000989 ± 0.011
34 | CAAUUCCUCUGGAUCUACUGGGAAUGGAUA [g9:g29:cont:t1A] | 0.000363 ± 0.018
35 | CUUAAGGACUGGAUCUACUGCGUUACCAAA | 0.0304 ± 0.032
36 | CUUAAGGAGUGGAUGUACUGGGUUAGCUAA | 0.0086 ± 0.0094
37 | CUUAACCUCUGGAUCUACUCGGUUACCUUA | 0.052 ± 0.011
38 | CUUAAGGAGACCAUCUACUGGGUUACGUUA | 0.000571 ± 0.012
39 | CUUAAGGAGACGAUCUGCUGGGUUACCUAA | 0.000946 ± 0.0066
40 | GAAUUCCUCUGGAUCUAGACGGUUACCUAA | 0.00251 ± 0.0044
41 | CUUAAGGAGACCUUCUACUGGGUUACCUAA [g2:g17:cont:t1A] | 0.00291 ± 0.0037
42 | CUUAAGGAGACCUUCUACUGGGUUACCUA | 0.00104 ± 0.012
43 | CUAUUCCUCUGGAUCUACUGGGUUACGUAA | 0.63 ± 0.047
44 | CUUAAGGAGACCUAGAACUGGGUCACCUAA | 0.000318 ± 0.023
45 | CUAAUCCUCUGGAUCUACUGGGUUACCUAA | 0.412 ± 0.061
46 | CUUAAGGAGACCUAGUAGUGGGUUACGUAA | 0.000465 ± 0.014
47 | CUUUUCCUCUGGAUCUGACUGGGUUACCUAA | 0.000851 ± 0.0094
48 | CUUAAGGAGACCUAGAUCUGGGUUACCUGA | 0.000477 ± 0.013

Row | Sequence | pre-steady-state target cleavage rate
49 | CUUUUCCUCUGGAUCUACUGGGUUACGUAA | 0.664 ± 0.034
50 | CUUAACCUCUGGAUCUACUGCCAUACCUAA | 0.00244 ± 0.0044
51 | CUUAAGGAGUGGAACUACUGGGUUACCAAA | 0.00137 ± 0.015
52 | CUUAAGGAGACGAUCAACUGGGUUACCUUA | 0.00028 ± 0.0087
53 | CUUAAGGAGACCAUGUACUGGGUUACCUAA | 0.00111 ± 0.0042
54 | CAAUUCCUCUGGAUCUACUGGGUUACAUAA | 0.739 ± 0.053
55 | CUUAAGGAGACGAUCUACUGGGAUACCUUA | 0.000102 ± 0.039
56 | CAAUUCCUCUGGAUCUACUGGGUUACCAUAA | 0.588 ± 0.078
57 | CUUUUCCUCAGGAUCUACUGGGUUACGUAA | 0.523 ± 0.067
58 | CUAUUCCUCUGGAUCUACUCCCUUACCUAA | 0.000383 ± 0.017
59 | CUUAAGGUCUGGAAGAACUGGGUUACCUAA | 0.00571 ± 0.011
60 | CUUAAGGAGACCUACUACGGGUUACCUAA | 0.000821 ± 0.011
61 | CUUAAGGUCUGGAUCUAGUGGCUUACCUAA | 0.00488 ± 0.0063
62 | CUUAAGGAGUGGAUCUACUGGUUACCUAA | 0.000967 ± 0.015
63 | CAAUUCCUCUGGAUCAUGUGGGUUACCUAA | 0.000783 ± 0.012
64 | GAAAUCCUCUCGAUCUACUGGGUUACCUAA | 0.586 ± 0.054
65 | CUUAAGGAGACCUUCUACUGGGUUACCUAC [g2:g17:cont:t1C] | 0.00116 ± 0.0086
66 | CUUAAGGAGACGAUCUACUGGGUGUACCUAA | 0.000498 ± 0.016
67 | CUUAAGGAGAGGAUCUACUGUGGUUACCUAA | 0.000202 ± 0.037
68 | CUUAAGGAGACCUAGAUGUGCGGUUACCUAA | 0.00105 ± 0.0081
69 | CUAUUCCUCUGGAUAUACUGGGUUACCUAA | 0.772 ± 0.057
70 | CUUAAGGAGAGGUUCUACUCGGUUACCUAA | 0.0013 ± 0.0062
